Results deposited as PubChem BioAssay AID1508597 (Cure First, 2020).

- Purpose: 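Genes whose silencing sensitises or protects ovarian cancer cells against rucaparib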 (primary screen)
- Cells: human ovarian carcinoma lines grown from tumours: OCI-P5x (papillary serous) and OCI-C5x (clear cell)
- Knock-down reagent: siRNA pool against human genes, 1.25 pmol siRNA per well
- Timing: 72 h or 96 h, depending on the cell culture
- Challenge: rucaparib 20 µM (about IC30) or vehicle, present until read-out
- Read-out: 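Luminescent ATP-based viability assay read 72 or 96 h after transfection, depending on culture, given as normalised percent viability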
- Direction: viability, normalised: higher = more viable cells remaining
- Hit rule: 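Active when normalised viability falls below 80 percent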
- Meaning of the calls: active = viability under 80%; inactive = viability 80% or more
Shown is an unselected part of about 2,100 deposited reagents. 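Calls flag viability under 80% in either arm, not effects specific to rucaparib; the reference for percent is not stated.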 Unmarked entries are inactive. Not given: the 100% reference.

Target gene | rucaparib or vehicle | cell line | technical replicate | viability, normalised (%)
PDE3B (phosphodiesterase 3B) | Rucaparib | OCI-C5x (clear cell) | 1 | 56.2 (active)
PDE3B (phosphodiesterase 3B) | Rucaparib | OCI-C5x (clear cell) | 2 | 60.2 (active)
PDE3B (phosphodiesterase 3B) | Rucaparib | OCI-C5x (clear cell) | 3 | 62.4 (active)
PDE3B (phosphodiesterase 3B) | Rucaparib | OCI-P5x (serous) | 1 | 46 (active)
PDE3B (phosphodiesterase 3B) | Rucaparib | OCI-P5x (serous) | 2 | 52.4 (active)
PDE3B (phosphodiesterase 3B) | Rucaparib | OCI-P5x (serous) | 3 | 53.9 (active)
PDE3B (phosphodiesterase 3B) | Vehicle | OCI-C5x (clear cell) | 1 | 59.1 (active)
PDE3B (phosphodiesterase 3B) | Vehicle | OCI-C5x (clear cell) | 2 | 55.8 (active)
PDE3B (phosphodiesterase 3B) | Vehicle | OCI-C5x (clear cell) | 3 | 49.8 (active)
PDE3B (phosphodiesterase 3B) | Vehicle | OCI-P5x (serous) | 1 | 73.8 (active)
PDE3B (phosphodiesterase 3B) | Vehicle | OCI-P5x (serous) | 2 | 45.9 (active)
PDE3B (phosphodiesterase 3B) | Vehicle | OCI-P5x (serous) | 3 | 46.7 (active)

Laid out differently: results already given
PDE3B (phosphodiesterase 3B), rucaparib or vehicle Rucaparib, cell line OCI-C5x (clear cell), technical replicate 1 → viability, normalised (%) = 56.2 (active)
PDE3B (phosphodiesterase 3B), rucaparib or vehicle Rucaparib, cell line OCI-C5x (clear cell), technical replicate 2 → viability, normalised (%) = 60.2 (active)
PDE3B (phosphodiesterase 3B), rucaparib or vehicle Rucaparib, cell line OCI-C5x (clear cell), technical replicate 3 → viability, normalised (%) = 62.4 (active)

The results go on:
Target gene | rucaparib or vehicle | cell line | technical replicate | viability, normalised (%)
MED16 (mediator complex subunit 16) | Rucaparib | OCI-C5x (clear cell) | 1 | 58.7 (active)
MED16 (mediator complex subunit 16) | Rucaparib | OCI-C5x (clear cell) | 2 | 40.9 (active)
MED16 (mediator complex subunit 16) | Rucaparib | OCI-C5x (clear cell) | 3 | 38.7 (active)
MED16 (mediator complex subunit 16) | Rucaparib | OCI-P5x (serous) | 1 | 38.5 (active)
MED16 (mediator complex subunit 16) | Rucaparib | OCI-P5x (serous) | 2 | 43.1 (active)
MED16 (mediator complex subunit 16) | Rucaparib | OCI-P5x (serous) | 3 | 37.3 (active)
MED16 (mediator complex subunit 16) | Vehicle | OCI-C5x (clear cell) | 1 | 46 (active)
MED16 (mediator complex subunit 16) | Vehicle | OCI-C5x (clear cell) | 2 | 42.1 (active)
MED16 (mediator complex subunit 16) | Vehicle | OCI-C5x (clear cell) | 3 | 47.4 (active)
MED16 (mediator complex subunit 16) | Vehicle | OCI-P5x (serous) | 1 | 47.9 (active)
MED16 (mediator complex subunit 16) | Vehicle | OCI-P5x (serous) | 2 | 58.8 (active)
MED16 (mediator complex subunit 16) | Vehicle | OCI-P5x (serous) | 3 | 50.2 (active)
